What was measured:
[1] = tested on: T98-G cells; assay: Dose-response MTT cell viability assay, T98-G; assay type: cell-based; conditions: Homo sapiens, T98G, 72 h, Fig. 2d
Method: (§1) Glioma-cell lines were seeded at a density of 1.5 × 10^3 cells/well in 96-well plates, with six replicates per condition. […] Cell viability was determined by MTT assay at 72 h after treatment. For this, MTT (3-(4,5-dimethyl-2-thiazolyl)-2,5-diphenyl-2H-tetrazolium bromide) reagent was added and, after a 3 h incubation at 37 °C and 5% CO2, media was removed and the formed crystals were resuspended in DMSO. Plates were measured at 570 nm using a spectrophotometer. Results were analyzed by GraphPad Prism software and IC50 values were calculated.

[2] = tested on: U251-MG cells; assay: Dose-response MTT cell viability assay, U251-MG; assay type: cell-based; conditions: Homo sapiens, U-251, 72 h, Fig. 2d
Method: as §1

[3] = tested on: GNS166 cells; assay: Microarray whole-transcriptome gene expression analysis; assay type: cell-based, human
Method: Whole-transcriptome analysis was performed from 300 ng of RNA using HuGene-2_0-st-v1 expression array (Affymetrix), which covers 48,226 transcripts. Raw data were first checked for quality purposes through the Affymetrix® Expression Console™ Software v1.4.1 and TAC software v4.0. Then, data were normalized using the Robust Multi-array Average (RMA) and analyzed by Limma tool. Probesets with FDR-corrected p-values smaller than 0.05 were selected. Functional enrichment on Gene Ontology (GO) biological processes was performed on a smaller subset of the differentially expressed genes (corrected p-value < 0.001) by means of Broad Institute GSEA. […] The data that support this study have been deposited in NCBI´s Gene Expression Omnibus and are accessible through GEO series accession number GSE143887.

[4] = tested on: patient-derived GNS179 stem cells; assay: Dose-response MTT cell viability assay, GNS179; assay type: cell-based; conditions: Homo sapiens, 72 h, Fig. 2d
Method: as §1

[5] = tested on: A172 cells; assay: Dose-response MTT cell viability assay, A172; assay type: cell-based; conditions: Homo sapiens, A 172, 72 h, Fig. 2d
Method: as §1

[6] = tested on: U87-MG cells; assay: Dose-response MTT cell viability assay, U87-MG; assay type: cell-based; conditions: Homo sapiens, U-87 MG, 72 h, Fig. 2d
Method: as §1

[7] = tested on: U373-MG cells; assay: Dose-response MTT cell viability assay, U373-MG; assay type: cell-based; conditions: Homo sapiens, 72 h, Fig. 2d
Method: as §1

[8] = tested on: patient-derived GNS166 stem cells; assay: Dose-response MTT cell viability assay, GNS166; assay type: cell-based; conditions: Homo sapiens, 72 h, Fig. 2d
Method: as §1

[9] = sheet DMSO-SAHA_DOWN, microarray

SMILES: O=C(CCCCCCC(=O)Nc1ccccc1)NO [SAHA, Suberoylanilide hydroxamic acid]
- IC50 [1]: 4.69 µM
- IC50 [2]: 22.1 µM
- logFC PKIA ([3]; 5 µM SAHA vs DMSO, transcript TC0800008028.hg.1): 2.2097
- logFC, unannotated transcript ([3]; DMSO vs SAHA, downregulated, transcript 23074032): -2.205
- logFC UFC1 ([3]; DMSO vs SAHA, downregulated, transcript TC0100010334.hg.1): -2.209
- logFC MZT2B ([3]; DMSO vs SAHA, downregulated, transcript TC0200009281.hg.1): -1.123
- logFC HIST2H2BF (transcript TC0100015696.hg.1) [3, 9]: -1.121
- logFC NCAPG (transcript TC0400006994.hg.1) [3, 9]: -0.9992
- logFC RNH1 (transcript TC1100009674.hg.1) [3, 9]: -0.9987
- logFC CCNYL1 ([3]; transcript TC0200010615.hg.1, DMSO vs 5 µM SAHA, upregulated genes): 1.118
- logFC GNPTAB ([3]; transcript TC1200011711.hg.1, DMSO vs 5 µM SAHA, upregulated genes): 1.119
- IC50 [4]: 11.2 µM
- IC50 [5]: 4.29 µM
- IC50 [6]: 9.99 µM
- IC50 [7]: 47.1 µM
- IC50 [8]: 41.1 µM

— article PMC7265429, “Characterization of a new small-molecule inhibitor of HDAC6 in glioblastoma” (Cell Death & Disease, 2020)
